The results in this text go back to paper PMC7694386.

By UniProt entry, the sequences of proteins in these tests, tags left out.
UniProt O95817: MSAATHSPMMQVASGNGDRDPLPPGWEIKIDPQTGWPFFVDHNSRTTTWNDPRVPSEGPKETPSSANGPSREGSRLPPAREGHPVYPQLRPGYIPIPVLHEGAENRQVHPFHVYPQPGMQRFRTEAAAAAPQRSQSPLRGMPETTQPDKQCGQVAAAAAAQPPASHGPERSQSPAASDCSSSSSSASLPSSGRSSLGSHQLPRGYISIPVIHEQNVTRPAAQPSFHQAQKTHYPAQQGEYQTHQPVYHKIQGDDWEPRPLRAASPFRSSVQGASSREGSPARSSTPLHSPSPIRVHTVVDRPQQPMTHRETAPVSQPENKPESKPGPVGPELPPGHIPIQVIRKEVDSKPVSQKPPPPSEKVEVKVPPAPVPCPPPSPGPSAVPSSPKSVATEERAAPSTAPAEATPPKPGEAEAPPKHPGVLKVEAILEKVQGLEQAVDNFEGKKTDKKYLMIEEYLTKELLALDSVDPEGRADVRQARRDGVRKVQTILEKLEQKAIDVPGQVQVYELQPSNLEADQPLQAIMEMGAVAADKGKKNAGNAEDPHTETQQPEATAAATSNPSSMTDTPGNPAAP

Results are given in words; binding and its absence hold for the method and conditions named. In cells and extracts the contact can be indirect. Here binding means that the protein was enriched with, or labelled near, the bait; the list need not be complete. Tags and fused reporters may be left off the sequences shown.

The target of this test is BAG3 (BCL-2-associated athanogene 3) (human (endogenous in HEK293T)) (UniProt O95817). Kind of test: affinity purification with mass spectrometry; endogenous BAG3 immunoprecipitated with anti-BAG3 antibody and Protein A/G magnetic beads from HEK293T lysate; cells treated with DMSO (basal) or 10 µM MG132 for 6 h; IgG IP (MG132_IgG) as control; label-free quantification, three biological replicates.

B1: splicing factor RBM22 (protein, UniProt Q9NW64 1-420)
chain: MATSLGSNTYNRQNWEDADFPILCQTCLGENPYIRMTKEKYGKECKICARPFTVFRWCPGVRMRFKKTEVCQTCSKLKNVCQTCLLDLEYGLPIQVRDAGLSFKDDMPKSDVNKEYYTQNMEREISNSDGTRPVGMLGKATSTSDMLLKLARTTPYYKRNRPHICSFWVKGECKRGEECPYRHEKPTDPDDPLADQNIKDRYYGINDPVADKLLKRASTMPRLDPPEDKTITTLYVGGLGDTITETDLRNHFYQFGEIRTITVVQRQQCAFIQFATRQAAEVAAEKSFNKLIVNGRRLNVKWGRSQAARGKEKEKDGTTDSGIKLEPVPGLPGALPPPPAAEEEASANYFNLPPSGPPAVVNIALPPPPGIAPPPPPGFGPHMFHPMGPPPPFMRAPGPIHYPSQDPQRMGAHAGKHSSP
Take B1: the binding entry is listed as “binds”.

B2: EDC4 (protein, UniProt Q6P2E9 1-1401)
chain: MASCASIDIEDATQHLRDILKLDRPAGGPSAESPRPSSAYNGDLNGLLVPDPLCSGDSTSANKTGLRTMPPINLQEKQVICLSGDDSSTCIGILAKEVEIVASSDSSISSKARGSNKVKIQPVAKYDWEQKYYYGNLIAVSNSFLAYAIRAANNGSAMVRVISVSTSERTLLKGFTGSVADLAFAHLNSPQLACLDEAGNLFVWRLALVNGKIQEEILVHIRQPEGTPLNHFRRIIWCPFIPEESEDCCEESSPTVALLHEDRAEVWDLDMLRSSHSTWPVDVSQIKQGFIVVKGHSTCLSEGALSPDGTVLATASHDGYVKFWQIYIEGQDEPRCLHEWKPHDGRPLSCLLFCDNHKKQDPDVPFWRFLITGADQNRELKMWCTVSWTCLQTIRFSPDIFSSVSVPPSLKVCLDLSAEYLILSDVQRKVLYVMELLQNQEEGHACFSSISEFLLTHPVLSFGIQVVSRCRLRHTEVLPAEEENDSLGADGTHGAGAMESAAGVLIKLFCVHTKALQDVQIRFQPQLNPDVVAPLPTHTAHEDFTFGESRPELGSEGLGSAAHGSQPDLRRIVELPAPADFLSLSSETKPKLMTPDAFMTPSASLQQITASPSSSSSGSSSSSSSSSSSLTAVSAMSSTSAVDPSLTRPPEELTLSPKLQLDGSLTMSSSGSLQASPRGLLPGLLPAPADKLTPKGPGQVPTATSALSLELQEVEPLGLPQASPSRTRSPDVISSASTALSQDIPEIASEALSRGFGSSAPEGLEPDSMASAASALHLLSPRPRPGPELGPQLGLDGGPGDGDRHNTPSLLEAALTQEASTPDSQVWPTAPDITRETCSTLAESPRNGLQEKHKSLAFHRPPYHLLQQRDSQDASAEQSDHDDEVASLASASGGFGTKVPAPRLPAKDWKTKGSPRTSPKLKRKSKKDDGDAAMGSRLTEHQVAEPPEDWPALIWQQQRELAELRHSQEELLQRLCTQLEGLQSTVTGHVERALETRHEQEQRRLERALAEGQQRGGQLQEQLTQQLSQALSSAVAGRLERSIRDEIKKTVPPCVSRSLEPMAGQLSNSVATKLTAVEGSMKENISKLLKSKNLTDAIARAAADTLQGPMQAAYREAFQSVVLPAFEKSCQAMFQQINDSFRLGTQEYLQQLESHMKSRKAREQEAREPVLAQLRGLVSTLQSATEQMAATVAGSVRAEVQHQLHVAVGSLQESILAQVQRIVKGEVSVALKEQQAAVTSSIMQAMRSAAGTPVPSAHLDCQAQQAHILQLLQQGHLNQAFQQALTAADLNLVLYVCETVDPAQVFGQPPCPLSQPVLLSLIQQLASDLGTRTDLKLSYLEEAVMHLDHSDPITRDHMGSVMAQVRQKLFQFLQAEPHNSLGKAARRLSLMLHGLVTPSLP
Turning to B2, the binding result is listed as “binds”.

B3: TSC1 (hamartin) (protein, UniProt Q92574 1-1164)
chain: MAQQANVGELLAMLDSPMLGVRDDVTAVFKENLNSDRGPMLVNTLVDYYLETSSQPALHILTTLQEPHDKHLLDRINEYVGKAATRLSILSLLGHVIRLQPSWKHKLSQAPLLPSLLKCLKMDTDVVVLTTGVLVLITMLPMIPQSGKQHLLDFFDIFGRLSSWCLKKPGHVAEVYLVHLHASVYALFHRLYGMYPCNFVSFLRSHYSMKENLETFEEVVKPMMEHVRIHPELVTGSKDHELDPRRWKRLETHDVVIECAKISLDPTEASYEDGYSVSHQISARFPHRSADVTTSPYADTQNSYGCATSTPYSTSRLMLLNMPGQLPQTLSSPSTRLITEPPQATLWSPSMVCGMTTPPTSPGNVPPDLSHPYSKVFGTTAGGKGTPLGTPATSPPPAPLCHSDDYVHISLPQATVTPPRKEERMDSARPCLHRQHHLLNDRGSEEPPGSKGSVTLSDLPGFLGDLASEEDSIEKDKEEAAISRELSEITTAEAEPVVPRGGFDSPFYRDSLPGSQRKTHSAASSSQGASVNPEPLHSSLDKLGPDTPKQAFTPIDLPCGSADESPAGDRECQTSLETSIFTPSPCKIPPPTRVGFGSGQPPPYDHLFEVALPKTAHHFVIRKTEELLKKAKGNTEEDGVPSTSPMEVLDRLIQQGADAHSKELNKLPLPSKSVDWTHFGGSPPSDEIRTLRDQLLLLHNQLLYERFKRQQHALRNRRLLRKVIKAAALEEHNAAMKDQLKLQEKDIQMWKVSLQKEQARYNQLQEQRDTMVTKLHSQIRQLQHDREEFYNQSQELQTKLEDCRNMIAELRIELKKANNKVCHTELLLSQVSQKLSNSESVQQQMEFLNRQLLVLGEVNELYLEQLQNKHSDTTKEVEMMKAAYRKELEKNRSHVLQQTQRLDTSQKRILELESHLAKKDHLLLEQKKYLEDVKLQARGQLQAAESRYEAQKRITQVFELEILDLYGRLEKDGLLKKLEEEKAEAAEAAEERLDCCNDGCSDSMVGHNEEASGHNGETKTPRPSSARGSSGSRGGGGSSSSSSELSTPEKPPHQRAGPFSSRWETTMGEASASIPTTVGSLPSSKSFLGMKARELFRNKSESQCDEDGMTSSLSESLKTELGKDLGVEAKIPLNLDGPHPSPPTPDSVGQLHIMDYNETHHEHS
Consider B3, for which the binding result is given as “binds”.

B4: Histone deacetylase complex subunit SAP130 (protein, UniProt Q9H0E3 1-1048)
chain: MGPPRHPQAGEIEAGGAGGGRRLQVEMSSQQFPRLGAPSTGLSQAPSQIANSGSAGLINPAATVNDESGRDSEVSAREHMSSSSSLQSREEKQEPVVVRPYPQVQMLSTHHAVASATPVAVTAPPAHLTPAVPLSFSEGLMKPPPKPTMPSRPIAPAPPSTLSLPPKVPGQVTVTMESSIPQASAIPVATISGQQGHPSNLHHIMTTNVQMSIIRSNAPGPPLHIGASHLPRGAAAAAVMSSSKVTTVLRPTSQLPNAATAQPAVQHIIHQPIQSRPPVTTSNAIPPAVVATVSATRAQSPVITTTAAHATDSALSRPTLSIQHPPSAAISIQRPAQSRDVTTRITLPSHPALGTPKQQLHTMAQKTIFSTGTPVAAATVAPILATNTIPSATTAGSVSHTQAPTSTIVTMTVPSHSSHATAVTTSNIPVAKVVPQQITHTSPRIQPDYPAERSSLIPISGHRASPNPVAMETRSDNRPSVPVQFQYFLPTYPPSAYPLAAHTYTPITSSVSTIRQYPVSAQAPNSAITAQTGVGVASTVHLNPMQLMTVDASHARHIQGIQPAPISTQGIQPAPIGTPGIQPAPLGTQGIHSATPINTQGLQPAPMGTQQPQPEGKTSAVVLADGATIVANPISNPFSAAPAATTVVQTHSQSASTNAPAQGSSPRPSILRKKPATDGAKPKSEIHVSMATPVTVSMETVSNQNNDQPTIAVPPTAQQPPPTIPTMIAAASPPSQPAVALSTIPGAVPITPPITTIAAAPPPSVTVGGSLSSVLGPPVPEIKVKEEVEPMDIMRPVSAVPPLATNTVSPSLALLANNLSMPTSDLPPGASPRKKPRKQQHVISTEEGDMMETNSTDDEKSTAKSLLVKAEKRKSPPKEYIDEEGVRYVPVRPRPPITLLRHYRNPWKAAYHHFQRYSDVRVKEEKKAMLQEIANQKGVSCRAQGWKVHLCAAQLLQLTNLEHDVYERLTNLQEGIIPKKKAATDDDLHRINELIQGNMQRCKLVMDQISEARDSMLKVLDHKDRVLKLLNKNGTVKKVSKLKRKEKV
With B4, the binding entry is listed as “binds”.

B5: GAPVD1 (protein, UniProt Q14C86 1-1478)
chain: MVKLDIHTLAHHLKQERLYVNSEKQLIQRLNADVLKTAEKLYRTAWIAKQQRINLDRLIITSAEASPAECCQHAKILEDTQFVDGYKQLGFQETAYGEFLSRLRENPRLIASSLVAGEKLNQENTQSVIYTVFTSLYGNCIMQEDESYLLQVLRYLIEFELKESDNPRRLLRRGTCAFSILFKLFSEGLFSAKLFLTATLHEPIMQLLVEDEDHLETDPNKLIERFSPSQQEKLFGEKGSDRFRQKVQEMVESNEAKLVALVNKFIGYLKQNTYCFPHSLRWIVSQMYKTLSCVDRLEVGEVRAMCTDLLLACFICPAVVNPEQYGIISDAPINEVARFNLMQVGRLLQQLAMTGSEEGDPRTKSSLGKFDKSCVAAFLDVVIGGRAVETPPLSSVNLLEGLSRTVVYITYSQLITLVNFMKSVMSGDQLREDRMALDNLLANLPPAKPGKSSSLEMTPYNTPQLSPATTPANKKNRLPIATRSRSRTNMLMDLHMDHEGSSQETIQEVQPEEVLVISLGTGPQLTPGMMSENEVLNMQLSDGGQGDVPVDENKLHGKPDKTLRFSLCSDNLEGISEGPSNRSNSVSSLDLEGESVSELGAGPSGSNGVEALQLLEHEQATTQDNLDDKLRKFEIRDMMGLTDDRDISETVSETWSTDVLGSDFDPNIDEDRLQEIAGAAAENMLGSLLCLPGSGSVLLDPCTGSTISETTSEAWSVEVLPSDSEAPDLKQEERLQELESCSGLGSTSDDTDVREVSSRPSTPGLSVVSGISATSEDIPNKIEDLRSECSSDFGGKDSVTSPDMDEITHGAHQLTSPPSQSESLLAMFDPLSSHEGASAVVRPKVHYARPSHPPPDPPILEGAVGGNEARLPNFGSHVLTPAEMEAFKQRHSYPERLVRSRSSDIVSSVRRPMSDPSWNRRPGNEERELPPAAAIGATSLVAAPHSSSSSPSKDSSRGETEERKDSDDEKSDRNRPWWRKRFVSAMPKAPIPFRKKEKQEKDKDDLGPDRFSTLTDDPSPRLSAQAQVAEDILDKYRNAIKRTSPSDGAMANYESTGDNHDRDLSSKLLYHSDKEVMGDGESAHDSPRDEALQNISADDLPDSASQAAHPQDSAFSYRDAKKKLRLALCSADSVAFPVLTHSTRNGLPDHTDPEDNEIVCFLKVQIAEAINLQDKNLMAQLQETMRCVCRFDNRTCRKLLASIAEDYRKRAPYIAYLTRCRQGLQTTQAHLERLLQRVLRDKEVANRYFTTVCVRLLLESKEKKIREFIQDFQKLTAADDKTAQVEDFLQFLYGAMAQDVIWQNASEEQLQDAQLAIERSVMNRIFKLAFYPNQDGDILRDQVLHEHIQRLSKVVTANHRALQIPEVYLREAPWPSAQSEIRTISAYKTPRDKVQCILRMCSTIMNLLSLANEDSVPGADDFVPVLVFVLIKANPPCLLSTVQYISSFYASCLSGEESYWWMQFTAAVEFIKTIDDRK
Turning to B5, the binding entry is “binds”.
